Experimental data reported in PMC12884770.

Target: T1, HA-tagged VPS4A (human) (UniProt Q9UN37)
T1 sequence: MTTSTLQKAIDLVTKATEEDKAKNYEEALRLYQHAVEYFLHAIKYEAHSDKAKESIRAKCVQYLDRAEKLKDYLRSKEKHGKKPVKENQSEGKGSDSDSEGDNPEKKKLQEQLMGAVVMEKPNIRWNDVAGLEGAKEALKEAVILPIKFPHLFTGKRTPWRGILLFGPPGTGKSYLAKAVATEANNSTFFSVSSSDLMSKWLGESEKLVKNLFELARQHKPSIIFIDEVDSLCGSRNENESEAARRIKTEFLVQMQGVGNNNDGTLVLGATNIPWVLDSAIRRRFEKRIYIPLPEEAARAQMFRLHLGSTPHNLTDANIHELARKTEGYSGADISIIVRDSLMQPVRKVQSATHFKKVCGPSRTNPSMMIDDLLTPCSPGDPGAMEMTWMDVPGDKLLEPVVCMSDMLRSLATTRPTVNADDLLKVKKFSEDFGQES
Experiment: co-IP; HEK293T co-transfected for 24 h with FLAG-tagged ZFYVE19 or its variants and HA-tagged partner; cells sonicated in 1× DPBS; lysate on EZview Red Anti-HA Affinity Gel overnight at 4 °C; five washes with 1× TBS; blots with anti-HA and anti-FLAG

Row | Substance | binding
1 | FLAG-tagged ZFYVE19 FYVE domain (human) (domain or fragment) | no binding
2 | FLAG-tagged ZFYVE19 MIM1 domain (human) (domain or fragment) | binds

No constants are given. Whether binding was seen depends on the method and setting. Binding seen in cells or lysates may run through a third protein. A result given as binding can be weak or reduced; the word gives no strength. Where a sequence is shown, tags or fusion partners need not be part of it.
